The other results are listed elsewhere or left out. These are raw signals, not scaled to a control.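 Primary screen: polymyxin B was added at a level permeabilizing Salmonella outer membranes while sparing inner membranes. DMSO wells, both with and without polymyxin B, established maximum growth. Plate-to-plate variation meant each plate was ranked on its own, and the lowest-OD600 compounds were selected as hits.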
Test system: Salmonella enterica serovar Typhimurium SL1344
Test: bacterial growth OD600 after 18 h with compound and polymyxin B; higher = more bacterial growth (less inhibition)
Details: 50 µM, Mueller-Hinton broth

Row | SMILES | bacterial growth OD600 (polymyxin B 1 µg/mL) | bacterial growth OD600 (polymyxin B 0.75 µg/mL)
1 | CC(=O)Nc1ccc(CN2CCc3c([nH]c4ccccc34)C2C(C)(C)C)cc1 (stereo not given) | 0.934 | –
2 | O=C1CCCc2occ(C(=O)N3CCOc4ccc(CN5CCN(c6ncccn6)CC5)cc4C3)c21 | – | 0.819
3 | O=C1N(CC2CCC2)CCCC1(O)CNCC1CCCCC1 (stereo not given) | 0.841 | –
4 | COc1ccc(NC2CCCN(C(=O)c3ccc4c(c3)C(=O)N(C)C4=O)C2)cc1 (stereo not given) | 0.957 | –
5 | CCOC(=O)C1(Cc2ccc(Cl)cc2)CCN(C2CCC2)CC1 | 0.977 | –
6 | COc1ccc(C(CC(=O)NCc2ccccn2)c2ccccc2)cc1 (stereo not given) | 0.817 | –
7 | CC(C)CS(=O)(=O)c1ncc(CN2CCCCC2CCO)n1Cc1ccccc1 (stereo not given) | 0.007 | –
8 | CC(=O)N1CCCC(CNc2ccc(-c3nc(C(C)C)no3)cn2)C1 (stereo not given) | – | 0.968
9 | CN(Cc1ccccc1)Cc1cc(C(=O)N(C)Cc2cnn(C)c2)no1 | – | 0.833
10 | Cc1ccc(CCC(=O)N2CCC(CCC(=O)NC3CC3)CC2)cc1 | 0.848 | –
11 | CC(C)N(Cc1nccn1C)c1nc2nonc2nc1NCc1cccs1 | – | 0.967
12 | CCOc1cc(CN2CCN(C(C)C)C(CCO)C2)ccc1O (stereo not given) | 1.13 | –
13 | Cc1cccc(C(=O)N2CCC(C3CCN(Cc4cccc(F)c4F)CC3)C2)n1 (stereo not given) | – | 0.813
14 | COc1ccc(CCNc2ncnc3sc(C(=O)N(C)CCc4ccccn4)c(C)c23)cc1OC | – | 0.853
15 | COc1ccc(CN(C)CC2CCN(CCc3cccc(F)c3)CC2)c(OC)c1OC | – | 0.765
16 | CN1C(=O)CC(CC(=O)N2CCCC(C(=O)c3nccn3C)C2)(c2ccc(-c3ccccc3)cc2)C1=O (stereo not given) | – | -0.016
17 | COCCN1C(=O)CC(CC(=O)N2CCCC(c3ccccc3)C2)(c2ccccc2F)C1=O (stereo not given) | – | 0.013
18 | CC(C(=O)N1CCC(CCC(=O)Nc2ccc(F)c(Cl)c2)CC1)N1CCCC1=O (stereo not given) | 1.05 | –
19 | CN(C)S(=O)(=O)N1CCC(n2nccc2NC(=O)Cc2ccccc2)CC1 | 0.898 | –
20 | CC(C)CN(C)c1ccc(C(=O)NCCC2CCCCN2C)cn1 (stereo not given) | – | 0.807
21 | COC(=O)c1ccccc1-c1cc(C)cc2c1OC(CNC(=O)Cn1cncn1)C2 (stereo not given) | – | 0.833
22 | CC(C)S(=O)(=O)c1ncc(CN2C[C@@H]3CCC[C@H]2C3)n1CCc1ccccc1 | 1.19 | –
23 | Cc1ccc(CN2CCC(CN(C)Cc3c(F)ccc(F)c3F)CC2)o1 | 1.23 | –
24 | CC(C)(CNc1nc2nonc2nc1NC1CCCC1)N1CCOCC1 | 0.811 | –
25 | O=C(c1ccsc1)N1CCCC(N2CCN(Cc3ccc4c(c3)OCO4)CC2)C1 (stereo not given) | 0.928 | –
26 | COc1ccc(-c2n[nH]cc2CN2CCCC(c3nc4ccccc4o3)C2)c(OC)c1 (stereo not given) | 0.779 | –
27 | CC(Nc1nc(CN2CCN(C(=O)c3ccco3)CC2)nc2ccccc12)c1ccc(F)cc1 (stereo not given) | – | 0.819
28 | Fc1cccc(-c2cnnc(N3CCC(OCc4ccccc4)CC3)n2)c1 | – | 0.051
29 | Cn1c(-c2ccncc2)nc2cc(C(=O)N3CCC(c4ccccc4)CC3)cc(NC(=O)C3CCC3)c21 | – | 0.843
30 | COC(=O)C1CCCCN1C(=O)c1c(OC)cc(=O)n2c1CCN(Cc1ccc3c(c1)CCO3)CC2 (stereo not given) | – | 0.802

5 compounds from above, arranged by SMILES length, low to high:
Row | SMILES | bacterial growth OD600 (polymyxin B 1 µg/mL) | bacterial growth OD600 (polymyxin B 0.75 µg/mL)
13 | Cc1cccc(C(=O)N2CCC(C3CCN(Cc4cccc(F)c4F)CC3)C2)n1 (stereo not given) | – | 0.813
26 | COc1ccc(-c2n[nH]cc2CN2CCCC(c3nc4ccccc4o3)C2)c(OC)c1 (stereo not given) | 0.779 | –
27 | CC(Nc1nc(CN2CCN(C(=O)c3ccco3)CC2)nc2ccccc12)c1ccc(F)cc1 (stereo not given) | – | 0.819
2 | O=C1CCCc2occ(C(=O)N3CCOc4ccc(CN5CCN(c6ncccn6)CC5)cc4C3)c21 | – | 0.819
16 | CN1C(=O)CC(CC(=O)N2CCCC(C(=O)c3nccn3C)C2)(c2ccc(-c3ccccc3)cc2)C1=O (stereo not given) | – | -0.016
